The source of these data is PubChem BioAssay AID200 (DTP/NCI, 2004).

The test has as its system B6C3F1 mice, B16 melanoma ip, median survival T/C. The experiment in a line: NCI In Vivo Anticancer Drug Screen. Data for tumor model B16 Melanoma (intraperitoneal) in B6C3F1 mice. Conditions: T/C endpoint: median survival time, higher T/C = longer survival. An outline of the steps: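 Tumor-bearing mice received test compound; a separate group got vehicle only. Survival was then compared, with results reported as treated over control.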

Where [1] appears, read: dose: 100.0 mg/kg/injection, schedule: Q01DX009 (ip), vehicle: saline with Tween-80.
[2] abbreviates: dose: 200.0 mg/kg/injection, schedule: Q01DX009 (ip), vehicle: saline with Tween-80.
Setting [3] is: dose: 50.0 mg/kg/injection, schedule: Q01DX009 (ip), vehicle: saline with Tween-80.

Each structure is given as a SMILES string. The list is a part of this screen's results and no random one: it gathers tests that were run many times, whatever their T/C, doses with no T/C, and many T/C values between a quarter and a half above the control. Other doses and runs of a compound stand elsewhere. T/C: endpoint of the treated group in % of that of the vehicle group. Some doses have a count of surviving animals in place of a T/C: the source holds a T/C of zero for them, seemingly a mark for toxic or unscored doses. Some doses without a T/C left all or most animals alive at the check, yet need not have been tolerated: survival well below the control is almost never listed, so the zero probably covers shortened survival too. Counts of survivors are from the toxicity check (mostly the fifth day) where no day follows; animals may have died later. Schedule codes are those of the source, taken here to give the interval after Q, in days (D) or hours (H), and the number of doses after X. Some entries hold several experiments; their values stand side by side, smallest first. Where survival is the endpoint, the PubChem record calls one and a half times the control and up active, and a quarter to a half above the control has no call in these data; cut-offs in other NCI protocols can differ. Some T/C values are followed by the survivors on the day toxicity was checked, most often the fifth; without a count, all were alive then.

As to `COc1c(O)c2c(c3cc(C(=O)N4CCc5c4c(O)c(OC)c4[nH]c(C(=O)N6CC7CC78C6=CC(=O)c6[nH]cc(C)c68)cc54)[nH]c13)CCN2C(N)=O` (centres undefined), the T/C by setting is: (dose: 6.25 micrograms/kg/injection, schedule: Q01DX009 (ip), vehicle: DMSO) 126 % of control; (dose: 12.5 micrograms/kg/injection, schedule: Q01DX009 (ip), vehicle: DMSO) 129 % of control; (dose: 25.0 micrograms/kg/injection, schedule: Q01DX009 (ip), vehicle: DMSO) 126 % of control; (dose: 50.0 micrograms/kg/injection, schedule: Q01DX009 (ip), vehicle: DMSO) 133 % of control. Besides, the survivor count is, setting by setting: (dose: 100.0 micrograms/kg/injection, schedule: Q01DX009 (ip), vehicle: DMSO) 9 of 10; (dose: 200.0 micrograms/kg/injection, schedule: Q01DX009 (ip), vehicle: DMSO) 8 of 10.

For the molecule `Nc1ncnc2c1ncn2C1C=C(CO)C(O)C1O` (centres undefined), the survivor count was 6 of 10 and 9 of 10 (dose: 8.0 mg/kg/injection, schedule: Q01DX009 (ip), vehicle: saline); 0 of 10 and 3 of 10 (dose: 16.0 mg/kg/injection, schedule: Q01DX009 (ip), vehicle: saline).

Turning to `COc1cc(NS(C)(=O)=O)ccc1Nc1c2ccccc2nc2ccccc12`, the T/C (dose: 0.25 mg/kg/injection, schedule: Q01DX009 (ip), vehicle: other) is 132 and 138 % of control; the T/C (dose: 0.5 mg/kg/injection, schedule: Q01DX009 (ip), vehicle: other) was 142 % of control; the T/C (dose: 1.0 mg/kg/injection, schedule: Q01DX009 (ip), vehicle: other, evaluated on day 5) was 159 % of control; the T/C (dose: 1.0 mg/kg/injection, schedule: Q01DX009 (ip), vehicle: other, evaluated on day 45) was 177 and 179 % of control; the T/C (dose: 1.0 mg/kg/injection, schedule: Q01DX009 (ip), vehicle: other, evaluated on day 50) was 177 % of control; the T/C (dose: 1.0 mg/kg/injection, schedule: Q01DX009 (ip), vehicle: saline with Tween-80) was 148 % of control. Also, the T/C by setting is: (dose: 1.0 mg/kg/injection, schedule: Q01DX009 (ip), vehicle: saline, evaluated on day 5) 122 [8 of 9 alive], 143, 156 % of control; (dose: 1.0 mg/kg/injection, schedule: Q01DX009 (ip), vehicle: saline, evaluated on day 60) 111 and 123 % of control; (dose: 2.0 mg/kg/injection, schedule: Q01DX009 (ip), vehicle: other, evaluated on day 5) 168 % of control; (dose: 2.0 mg/kg/injection, schedule: Q01DX009 (ip), vehicle: other, evaluated on day 45) 181 and 230 % of control; (dose: 2.0 mg/kg/injection, schedule: Q01DX009 (ip), vehicle: other, evaluated on day 50) 225 % of control; (dose: 2.0 mg/kg/injection, schedule: Q01DX009 (ip), vehicle: saline, evaluated on day 5) 127 [6 of 8 alive], 144, 166, 186 % of control. The T/C by setting is: (dose: 2.0 mg/kg/injection, schedule: Q01DX009 (ip), vehicle: saline, evaluated on day 60) 126 and 148 % of control; (dose: 4.0 mg/kg/injection, schedule: Q01DX009 (ip), vehicle: other, evaluated on day 5) 171 % of control; (dose: 4.0 mg/kg/injection, schedule: Q01DX009 (ip), vehicle: other, evaluated on day 45) 138 % of control; (dose: 4.0 mg/kg/injection, schedule: Q01DX009 (ip), vehicle: other, evaluated on day 50) 115 % of control; (dose: 8.0 mg/kg/injection, schedule: Q01DX001 (ip), vehicle: clinical formulation) 145 % of control; (dose: 16.0 mg/kg/injection, schedule: Q01DX001 (ip), vehicle: clinical formulation) 144 % of control. For the same molecule, the survivor count was 10 of 10 (dose: 2.0 mg/kg/injection, schedule: Q01DX005 (ip), vehicle: other); 10 of 10 (dose: 2.0 mg/kg/injection, schedule: Q01DX005 (iv), vehicle: other); 8 of 10 (dose: 4.0 mg/kg/injection, schedule: Q01DX005 (ip), vehicle: other); 10 of 10 (dose: 4.0 mg/kg/injection, schedule: Q01DX005 (iv), vehicle: clinical formulation); 7 of 10 (dose: 4.0 mg/kg/injection, schedule: Q01DX005 (iv), vehicle: other); 10 of 10 (dose: 4.0 mg/kg/injection, schedule: Q01DX009 (ip), vehicle: other). Moreover, the survivor count is given as 10 of 10 (dose: 8.0 mg/kg/injection, schedule: Q01DX005 (ip), vehicle: clinical formulation); 9 of 10 (dose: 8.0 mg/kg/injection, schedule: Q01DX005 (ip), vehicle: other); 9 of 10 (dose: 8.0 mg/kg/injection, schedule: Q01DX005 (iv), vehicle: clinical formulation); 8 of 10 (dose: 8.0 mg/kg/injection, schedule: Q01DX005 (iv), vehicle: other); 9 of 10 (dose: 8.0 mg/kg/injection, schedule: Q01DX009 (ip), vehicle: other); 6 of 10 (dose: 16.0 mg/kg/injection, schedule: Q01DX005 (ip), vehicle: clinical formulation). The survivor count by setting is: (dose: 16.0 mg/kg/injection, schedule: Q01DX005 (iv), vehicle: clinical formulation) 0 of 10; (dose: 16.0 mg/kg/injection, schedule: Q01DX005 (oral), vehicle: other) 6 of 10; (dose: 16.0 mg/kg/injection, schedule: Q01DX009 (ip), vehicle: saline with Tween-80) 10 of 10; (dose: 32.0 mg/kg/injection, schedule: Q01DX001 (ip), vehicle: clinical formulation) 2 of 10; (dose: 32.0 mg/kg/injection, schedule: Q01DX001 (iv), vehicle: clinical formulation) 9 of 10; (dose: 64.0 mg/kg/injection, schedule: Q01DX001 (ip), vehicle: clinical formulation) 0 of 10. For the same molecule, the survivor count (dose: 64.0 mg/kg/injection, schedule: Q01DX001 (iv), vehicle: clinical formulation) is recorded as 0 of 10.

Regarding `CCCC(=O)O.CCCC(=O)O.CCCC(=O)O.CCCC(=O)O.[Rh].[Rh]`, the survivor count (dose: 1.0 mg/kg/injection, schedule: Q01DX009 (ip), vehicle: saline + alcohol) was 9 of 10.

Consider `O=C(Nc1ccccc1)c1c(O)[nH]c(=O)[nH]c1=O`, for which the T/C was 125 [8 of 10 alive] and 130 % of control under setting [1]; 139 and 140 % of control [9 of 10 alive] under setting [2]. Further, the survivor count (dose: 400.0 mg/kg/injection, schedule: Q01DX009 (ip), vehicle: saline with Tween-80) was 9 of 10.

For the molecule `CN=S(=O)(OCCCCCOS(=O)(=NC)c1ccccc1)c1ccccc1` (centres undefined), the survivor count reads like this: (dose: 25.0 mg/kg/injection, schedule: Q01DX009 (ip), vehicle: saline with Tween-80) 7 of 7; under setting [3], 4 of 6; under setting [1], 4 of 6. Further, under setting [3], the T/C is 147 % of control.

With `O=C(O)CCC(NC(=O)c1ccccc1)C(=O)O` (centres undefined), under setting [2], the survivor count was 5 of 5.

As to `CC1OC(O[C@H]2C[C@](O)(C(C)O)Cc3c(O)c4c(c(O)c32)C(=O)c2c(O)cccc2C4=O)CC(NC=O)C1O` (some centres undefined), the T/C (dose: 0.31 mg/kg/injection, schedule: Q01DX001 (ip), vehicle: water) was 149 % of control. The survivor count runs as follows: (dose: 5.0 mg/kg/injection, schedule: Q01DX001 (ip), vehicle: distilled water + Tween-80) 9 of 10; (dose: 10.0 mg/kg/injection, schedule: Q01DX001 (ip), vehicle: distilled water + Tween-80) 3 of 10; (dose: 20.0 mg/kg/injection, schedule: Q01DX001 (ip), vehicle: distilled water + Tween-80) 0 of 10; (dose: 40.0 mg/kg/injection, schedule: Q01DX001 (ip), vehicle: distilled water + Tween-80) 0 of 10.
